This is an account of results in patent US20200102349A1, “PEPTIDE REAGENTS AND METHODS FOR DETECTION AND TARGETING OF DYSPLASIA, EARLY CANCER AND CANCER” (THE REGENTS OF THE UNIVERSITY OF MICHIGAN, priority 2014, published 2020).

In the series the test system is human colonic dysplasia. In words: Binding of EGFR peptide and antibody to human colonic dysplasia specimens, confocal microscopy. Conditions: merged image with AF488-labeled anti-EGFR. On the procedure: For the in vivo fluorescence images of mouse colon, the T/B ratios for flat dysplasia and polyps were log-transformed to improve normality. The fold-change between classification pairs was estimated using the anti-log of the difference in the log-transformed data. Differences in results between the experimental and control peptides were evaluated on t-test. *P<0.05 was considered significant. Similar methods were used to evaluate the ex vivo fluorescence images of human colonic specimens. The results were plotted on a receiver-operator characteristic (ROC) curve. Co-localization of peptide and antibody binding was evaluated on Pearson's correlation coefficient. All analyses were performed using custom Matlab software (MathWorks Inc).
Specimens of human colonic mucosa were obtained from biopsy during routine colonoscopy, frozen in OCT, cut in 10 μm sections, and incubated with QRH*-Cy5.5 (5 μM) in 1×PBS for 10 min at RT. The sections were washed 3× with PBS and incubated overnight at 4° C. with 1:1000 dilution of primary monoclonal rabbit anti-EGFR antibody (Cell Signaling Technology, #4267, isotype IgG). […] Confocal fluorescence images were collected with DAPI, FITC and Cy5.5 filters with 20× objective (Leica TCS SP5 Microsystems). The mean fluorescence intensities from 3 boxes (dimensions of 30×30 μm2) located completely within the surface epithelium of each specimen were measured. […]

Regarding “QRHKPRE (SEQ ID NO: 1) with Cy5.5 fluorophore attached via a GGGSK linker (SEQ ID NO: 18) on the C-terminus [QRH*-Cy5.5]”, the “co-localization of peptide and antibody binding (Pearson's correlation coefficient)” value is recorded as 0.71.
